For the assay, the target named is Puromycin-sensitive aminopeptidase (human PSA for crystallization, N-terminal polyhistidine tag) (human) (UniProt P55786). The experiment in a line: crystal structure; PSA crystals soaked 1 h in 1 mM EDTA, 0.1 M Tris pH 8.5, 0.5 M NaCl, then 45 min in crystallization conditions plus 1 mM EDTA and 200 μM PQ peptide; 3.65 Å data set; both purified.

Chains of the proteins cited; added tags and fusions are not shown. Residues count along the entry.
UniProt P55786, residues 46-919: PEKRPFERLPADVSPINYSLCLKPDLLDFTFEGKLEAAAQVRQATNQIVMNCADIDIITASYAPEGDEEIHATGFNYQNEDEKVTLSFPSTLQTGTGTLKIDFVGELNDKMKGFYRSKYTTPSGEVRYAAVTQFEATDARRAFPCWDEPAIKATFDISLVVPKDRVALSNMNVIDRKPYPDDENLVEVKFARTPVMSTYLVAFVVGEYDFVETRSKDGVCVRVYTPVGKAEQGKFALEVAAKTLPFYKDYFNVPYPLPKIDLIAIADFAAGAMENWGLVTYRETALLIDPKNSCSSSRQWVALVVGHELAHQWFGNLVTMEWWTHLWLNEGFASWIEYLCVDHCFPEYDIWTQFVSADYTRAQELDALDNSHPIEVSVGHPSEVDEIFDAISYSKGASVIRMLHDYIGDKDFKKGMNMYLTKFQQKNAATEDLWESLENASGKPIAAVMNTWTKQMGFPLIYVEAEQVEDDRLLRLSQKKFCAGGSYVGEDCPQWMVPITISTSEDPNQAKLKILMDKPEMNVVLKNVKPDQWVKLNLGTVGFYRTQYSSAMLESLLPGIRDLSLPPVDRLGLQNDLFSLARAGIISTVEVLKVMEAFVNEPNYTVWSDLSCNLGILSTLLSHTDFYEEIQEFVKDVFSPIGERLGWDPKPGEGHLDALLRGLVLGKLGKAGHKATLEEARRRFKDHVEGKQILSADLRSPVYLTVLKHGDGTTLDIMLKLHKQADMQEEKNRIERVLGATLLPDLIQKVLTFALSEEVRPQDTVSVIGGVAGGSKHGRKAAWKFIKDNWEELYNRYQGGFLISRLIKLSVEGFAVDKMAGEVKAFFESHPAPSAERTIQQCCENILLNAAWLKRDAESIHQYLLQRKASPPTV

Results are given in words; binding and its absence hold for the method and conditions named. Some entries that bind do so weakly or less than the wild type.

Turning to KKQQQQQQQQQQQQQQQKK [Polyglutamine peptide Lys2Gln15Lys2], the binding entry is listed as “binds”.

These data come from publication PMC10343166.
